Measurements taken from publication PMC6636133.
No constants are given. Whether binding was seen depends on the method and setting. Binding seen in cells or lysates may run through a third protein. Some entries that bind do so weakly or less than the wild type.

Target: p65 (co-IP with IκBα, Fig. 5b) (human), Q04206
Assay: co-IP; HEK 293T cells, with or without overexpressed BMAL1; immunoprecipitation with the indicated antibodies
Details: remark: other sources report otherwise

B1: IκBα, P25963 1-317 (protein)
chain: MFQAAERPQEWAMEGPRDGLKKERLLDDRHDSGLDSMKDEEYEQMVKELQEIRLEPQEVPRGSEPWKQQLTEDGDSFLHLAIIHEEKALTMEVIRQVKGDLAFLNFQNNLQQTPLHLAVITNQPEIAEALLGAGCDPELRDFRGNTPLHLACEQGCLASVGVLTQSCTTPHLHSILKATNYNGHTCLHLASIHGYLGIVELLVSLGADVNAQEPCNGRTALHLAVDLQNPDLVSLLLKCGADVNRVTYQGYSPYQLTWGRPSTRIQQQLGQLTLENLQMLPESEDEESYDTESEFTEFTEDELPYDDCVFGGQRLTL
Q: Which binding does the source give for B1 here?
A: The binding was “binds”.
